PubChem BioAssay AID1159578, Peter MacCallum Cancer Centre – 2015
This is an unselected part of about 18,000 reagents. In the full data, about 1,030 (5.7%) got an active call. 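Inactive calls also include pools with fewer than 3300 nuclei, whose migration was not assessed.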 Raw values are not corrected between plates. A number with no mark means an inactive call. The numbers tell different reagents against one gene apart. Not all columns of the deposit are shown.

Purpose: 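siRNA pools altering how lymphatic endothelial cells close a scratch wound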 (primary screen)
System: human lymphatic endothelial cells
Reagents: siRNA pool against human genes, 40 nM
Duration: 48 h after transfection
Measured: 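High-content imaging of dye-stained cells in a scratch assay measures filled wound area and nuclei per well; duplicate means given as ratio to mock and robust z-score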
Scale: migration robust z-score: higher = faster migration into the scratch; nuclei per well: higher = more cells in the well
Rule for the call: 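Pools averaging fewer than 3300 nuclei are never called; remaining pools count as changed when migration robust z lies outside -2 to 2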
Calls: active = migration changed; inactive = no migration change, or too few cells

no.	Gene	pool no.	migration robust z-score	migration class with cell-count check	nuclei per well, duplicate mean
1	PAQR4	1	1.7	migration z between -2 and 2; enough cells	6206
2	ATXN2L	1	-0.26	migration z between -2 and 2; enough cells	6316
3	TTI2	1	0.37	migration z between -2 and 2; enough cells	5557
4	NLGN4X	1	-0.03	migration z between -2 and 2; enough cells	5552
5	NKX6-3	1	0.24	migration z between -2 and 2; enough cells	6378
6	RIF1	1	0.96	migration z between -2 and 2; enough cells	5676
7	PHF12	1	0	migration z between -2 and 2; enough cells	6078
8	MAPK15	1	-0.86	migration z between -2 and 2; enough cells	4122
9	ADGRB1	1	0.7	migration z between -2 and 2; enough cells	7156
10	CCNL2	1	-1.01	migration z between -2 and 2; enough cells	5885
11	RPTOR	1	-1.83	migration z between -2 and 2; enough cells	6124
12	ARL13A	1	0.46	migration z between -2 and 2; enough cells	5638
13	DIRAS2	1	-1.03	migration z between -2 and 2; enough cells	4546
14	FYB2	1	-0.6	migration z between -2 and 2; enough cells	5910
15	HADH	1	-1.22	migration z between -2 and 2; enough cells	5634
16	ZCCHC14	1	-0.9	migration z between -2 and 2; enough cells	6044
17	KXD1	1	-0.75	migration z between -2 and 2; enough cells	6042
18	OBSCN	1	0.11	migration z between -2 and 2; enough cells	4928
19	OBSCN	2	-0.53	migration z between -2 and 2; enough cells	4442
20	RBM47	1	1.14	migration z between -2 and 2; enough cells	5895
21	KITLG	1	0.44	migration z between -2 and 2; enough cells	5570
22	GRIN1	1	-0.9	migration z between -2 and 2; enough cells	5753
23	LMO1	1	-0.29	migration z between -2 and 2; enough cells	5366
24	ACTR10	1	0.73	migration z between -2 and 2; enough cells	5520
25	FBXO45	1	0.57	migration z between -2 and 2; enough cells	7090
26	SMC4	1	0.57	migration z between -2 and 2; enough cells	3926
27	ST7	1	-0.46	migration z between -2 and 2; enough cells	5652
28	KCNH4	1	-0.52	migration z between -2 and 2; enough cells	4387
29	ASH2L	1	0.07	migration z between -2 and 2; enough cells	6166
30	DELE1	1	-0.02	migration z between -2 and 2; enough cells	5573
31	KIF11	1	-1.09	under 3300 nuclei; migration not judged	2930
32	NIPBL	1	0.1	migration z between -2 and 2; enough cells	5702
33	VCF1	1	-0.6	migration z between -2 and 2; enough cells	6150
34	SLC8A1	1	0.34	migration z between -2 and 2; enough cells	6138
35	BCL2L1	1	-0.94	migration z between -2 and 2; enough cells	4577
36	METTL1	1	-0.8	migration z between -2 and 2; enough cells	3804
37	WNK2	1	0.88	migration z between -2 and 2; enough cells	4336
38	DIPK2B	1	-1.24	migration z between -2 and 2; enough cells	6143
39	CCDC150	1	0.42	migration z between -2 and 2; enough cells	6204
40	GH1	1	-2.24 (active)	migration z below -2; enough cells	5006
41	H2BC14	1	0.88	migration z between -2 and 2; enough cells	6030
42	GLT6D1	1	-0.68	migration z between -2 and 2; enough cells	6042
43	SMAD6	1	-0.57	migration z between -2 and 2; enough cells	7578
44	TRAF3IP3	1	-0.44	migration z between -2 and 2; enough cells	6213
45	ELF5	1	0.86	migration z between -2 and 2; enough cells	6065
46	SLC44A4	1	1.38	migration z between -2 and 2; enough cells	5666
47	FBXL4	1	1.3	migration z between -2 and 2; enough cells	5724
48	GDI1	1	0.52	migration z between -2 and 2; enough cells	5084
49	RNF32	1	1.17	migration z between -2 and 2; enough cells	5604
50	PPT2	1	-0.65	migration z between -2 and 2; enough cells	5500
51	OR10P1	1	-0.03	migration z between -2 and 2; enough cells	6240
52	FSIP1	1	0.12	migration z between -2 and 2; enough cells	6450
53	UTP14A	1	1.5	migration z between -2 and 2; enough cells	7390
54	DOCK4	1	-0.42	migration z between -2 and 2; enough cells	5142
55	ATP5MG	1	-0.44	migration z between -2 and 2; enough cells	5936
56	ABCB1	1	-0.34	migration z between -2 and 2; enough cells	4882
57	GTF3C1	1	-1.4	migration z between -2 and 2; enough cells	5504
